Publication PMC8274477
No constants are given. Whether binding was seen depends on the method and setting. Some entries that bind do so weakly or less than the wild type.

Chains of the proteins cited; added tags and fusions are not shown.
UniProt P31939: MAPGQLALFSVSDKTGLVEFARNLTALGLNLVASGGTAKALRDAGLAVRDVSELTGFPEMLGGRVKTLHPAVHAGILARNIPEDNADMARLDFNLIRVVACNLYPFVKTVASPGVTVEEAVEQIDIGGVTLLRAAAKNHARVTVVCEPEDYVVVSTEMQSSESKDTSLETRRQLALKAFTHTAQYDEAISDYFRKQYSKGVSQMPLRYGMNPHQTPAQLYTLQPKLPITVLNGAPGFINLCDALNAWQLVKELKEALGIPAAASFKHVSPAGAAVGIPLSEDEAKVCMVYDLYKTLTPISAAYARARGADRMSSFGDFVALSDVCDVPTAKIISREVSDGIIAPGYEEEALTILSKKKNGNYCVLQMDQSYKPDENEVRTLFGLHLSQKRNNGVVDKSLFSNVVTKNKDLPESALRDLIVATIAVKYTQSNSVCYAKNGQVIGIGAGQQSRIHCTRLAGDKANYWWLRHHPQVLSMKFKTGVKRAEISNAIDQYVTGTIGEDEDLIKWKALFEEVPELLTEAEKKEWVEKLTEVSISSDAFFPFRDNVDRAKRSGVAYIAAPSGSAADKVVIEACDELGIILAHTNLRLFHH
UniProt O43432: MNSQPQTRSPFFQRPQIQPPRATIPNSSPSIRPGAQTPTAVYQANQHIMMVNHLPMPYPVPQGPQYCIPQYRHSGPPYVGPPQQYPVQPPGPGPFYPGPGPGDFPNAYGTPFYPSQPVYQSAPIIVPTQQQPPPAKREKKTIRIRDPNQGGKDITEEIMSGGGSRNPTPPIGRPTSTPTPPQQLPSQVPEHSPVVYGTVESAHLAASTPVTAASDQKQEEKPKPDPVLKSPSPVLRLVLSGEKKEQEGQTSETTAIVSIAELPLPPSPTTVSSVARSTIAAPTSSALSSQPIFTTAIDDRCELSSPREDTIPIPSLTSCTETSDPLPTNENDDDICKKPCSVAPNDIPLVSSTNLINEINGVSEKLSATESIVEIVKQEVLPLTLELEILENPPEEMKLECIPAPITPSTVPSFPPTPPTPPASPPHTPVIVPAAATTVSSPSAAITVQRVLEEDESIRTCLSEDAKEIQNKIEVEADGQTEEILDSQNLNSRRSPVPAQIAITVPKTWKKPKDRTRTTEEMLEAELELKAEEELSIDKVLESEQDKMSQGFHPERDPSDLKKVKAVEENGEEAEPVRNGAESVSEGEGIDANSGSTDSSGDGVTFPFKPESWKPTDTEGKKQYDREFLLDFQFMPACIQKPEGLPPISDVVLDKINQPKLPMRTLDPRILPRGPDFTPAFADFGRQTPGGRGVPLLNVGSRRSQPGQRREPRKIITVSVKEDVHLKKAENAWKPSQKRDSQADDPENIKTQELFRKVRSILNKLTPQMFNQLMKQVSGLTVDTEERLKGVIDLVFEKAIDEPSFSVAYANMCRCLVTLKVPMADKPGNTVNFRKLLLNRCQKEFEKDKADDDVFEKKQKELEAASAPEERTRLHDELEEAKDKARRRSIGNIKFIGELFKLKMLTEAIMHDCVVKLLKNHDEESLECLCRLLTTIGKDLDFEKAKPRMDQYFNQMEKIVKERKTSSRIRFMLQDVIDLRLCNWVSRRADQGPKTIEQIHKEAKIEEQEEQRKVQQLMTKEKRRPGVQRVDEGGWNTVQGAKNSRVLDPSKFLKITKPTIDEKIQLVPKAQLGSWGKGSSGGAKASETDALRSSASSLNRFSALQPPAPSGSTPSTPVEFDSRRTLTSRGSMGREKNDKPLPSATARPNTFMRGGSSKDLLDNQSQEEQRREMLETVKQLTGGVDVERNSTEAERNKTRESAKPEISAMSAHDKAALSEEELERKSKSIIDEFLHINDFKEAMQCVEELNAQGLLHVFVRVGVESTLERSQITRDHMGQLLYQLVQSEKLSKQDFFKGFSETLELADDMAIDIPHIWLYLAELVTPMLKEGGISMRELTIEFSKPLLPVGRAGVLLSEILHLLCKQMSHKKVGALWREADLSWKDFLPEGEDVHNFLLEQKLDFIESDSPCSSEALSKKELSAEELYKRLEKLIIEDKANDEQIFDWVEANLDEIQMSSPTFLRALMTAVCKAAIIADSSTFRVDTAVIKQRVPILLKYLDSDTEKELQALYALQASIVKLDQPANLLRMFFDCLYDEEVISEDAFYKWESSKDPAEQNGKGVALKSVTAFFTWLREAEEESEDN
UniProt Q9BRJ7: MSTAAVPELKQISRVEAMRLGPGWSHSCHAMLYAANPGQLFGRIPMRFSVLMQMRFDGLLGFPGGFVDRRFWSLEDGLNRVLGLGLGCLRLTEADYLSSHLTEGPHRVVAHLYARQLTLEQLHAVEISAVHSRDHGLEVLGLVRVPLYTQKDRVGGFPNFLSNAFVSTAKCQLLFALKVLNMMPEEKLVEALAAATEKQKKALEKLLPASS
UniProt Q6NXT4: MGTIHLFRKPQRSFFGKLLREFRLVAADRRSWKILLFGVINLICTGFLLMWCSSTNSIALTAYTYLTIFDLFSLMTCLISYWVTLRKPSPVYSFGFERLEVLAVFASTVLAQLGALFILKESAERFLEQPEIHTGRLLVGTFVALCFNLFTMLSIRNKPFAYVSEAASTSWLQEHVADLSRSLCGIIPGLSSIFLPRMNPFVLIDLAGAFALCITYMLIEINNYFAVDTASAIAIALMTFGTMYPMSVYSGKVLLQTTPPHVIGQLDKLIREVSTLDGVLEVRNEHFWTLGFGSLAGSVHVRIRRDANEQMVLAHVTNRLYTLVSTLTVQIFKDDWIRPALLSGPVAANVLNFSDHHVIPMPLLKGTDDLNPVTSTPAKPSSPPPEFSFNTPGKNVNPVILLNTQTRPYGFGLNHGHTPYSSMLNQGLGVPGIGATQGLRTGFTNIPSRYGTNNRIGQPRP
UniProt O43670: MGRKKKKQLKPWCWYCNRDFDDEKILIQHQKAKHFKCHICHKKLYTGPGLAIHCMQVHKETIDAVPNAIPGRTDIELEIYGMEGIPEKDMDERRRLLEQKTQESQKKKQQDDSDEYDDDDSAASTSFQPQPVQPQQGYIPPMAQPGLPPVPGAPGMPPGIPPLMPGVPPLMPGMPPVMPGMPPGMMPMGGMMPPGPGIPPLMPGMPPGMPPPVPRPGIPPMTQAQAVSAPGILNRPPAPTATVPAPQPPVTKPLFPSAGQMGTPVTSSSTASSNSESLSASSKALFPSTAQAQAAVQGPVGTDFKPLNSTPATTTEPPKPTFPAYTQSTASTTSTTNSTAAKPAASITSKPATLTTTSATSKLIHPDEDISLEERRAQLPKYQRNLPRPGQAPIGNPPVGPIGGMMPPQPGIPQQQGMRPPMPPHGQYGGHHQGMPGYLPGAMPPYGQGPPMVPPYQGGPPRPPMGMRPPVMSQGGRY

Experiments:
Assay in all cases: peptide or protein array; HuProt human proteome microarray; 5 ug/5 ml biotin-labelled LUBAC or OTULIN in solution, 1 h at room temperature; Cy5-streptavidin, scanned at 635 nm; BSA as negative control; hits: Z-score >= 3 and I_(Mean_Ratio) >= 1.4; both purified
ATIC (human) = ATIC (human) (UniProt P31939)
BPHL (human) = biological target: T1, BPHL (human) (UniProt Q86WA6)
T1 sequence: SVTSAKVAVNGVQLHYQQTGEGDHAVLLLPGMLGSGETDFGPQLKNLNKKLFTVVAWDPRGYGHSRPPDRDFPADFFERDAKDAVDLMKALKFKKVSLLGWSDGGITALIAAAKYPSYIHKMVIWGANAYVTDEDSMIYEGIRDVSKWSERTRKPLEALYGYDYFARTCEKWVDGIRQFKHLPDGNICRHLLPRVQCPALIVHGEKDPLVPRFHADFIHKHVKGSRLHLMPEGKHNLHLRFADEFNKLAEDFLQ

EIF4G3 (human) = EIF4G3 (human) (UniProt O43432)
NUDT16L1 (human) = NUDT16L1 (human) (UniProt Q9BRJ7)
RBM12 (human) = biological target: T2, RBM12 (human) (UniProt Q9NTZ6)
T2 sequence: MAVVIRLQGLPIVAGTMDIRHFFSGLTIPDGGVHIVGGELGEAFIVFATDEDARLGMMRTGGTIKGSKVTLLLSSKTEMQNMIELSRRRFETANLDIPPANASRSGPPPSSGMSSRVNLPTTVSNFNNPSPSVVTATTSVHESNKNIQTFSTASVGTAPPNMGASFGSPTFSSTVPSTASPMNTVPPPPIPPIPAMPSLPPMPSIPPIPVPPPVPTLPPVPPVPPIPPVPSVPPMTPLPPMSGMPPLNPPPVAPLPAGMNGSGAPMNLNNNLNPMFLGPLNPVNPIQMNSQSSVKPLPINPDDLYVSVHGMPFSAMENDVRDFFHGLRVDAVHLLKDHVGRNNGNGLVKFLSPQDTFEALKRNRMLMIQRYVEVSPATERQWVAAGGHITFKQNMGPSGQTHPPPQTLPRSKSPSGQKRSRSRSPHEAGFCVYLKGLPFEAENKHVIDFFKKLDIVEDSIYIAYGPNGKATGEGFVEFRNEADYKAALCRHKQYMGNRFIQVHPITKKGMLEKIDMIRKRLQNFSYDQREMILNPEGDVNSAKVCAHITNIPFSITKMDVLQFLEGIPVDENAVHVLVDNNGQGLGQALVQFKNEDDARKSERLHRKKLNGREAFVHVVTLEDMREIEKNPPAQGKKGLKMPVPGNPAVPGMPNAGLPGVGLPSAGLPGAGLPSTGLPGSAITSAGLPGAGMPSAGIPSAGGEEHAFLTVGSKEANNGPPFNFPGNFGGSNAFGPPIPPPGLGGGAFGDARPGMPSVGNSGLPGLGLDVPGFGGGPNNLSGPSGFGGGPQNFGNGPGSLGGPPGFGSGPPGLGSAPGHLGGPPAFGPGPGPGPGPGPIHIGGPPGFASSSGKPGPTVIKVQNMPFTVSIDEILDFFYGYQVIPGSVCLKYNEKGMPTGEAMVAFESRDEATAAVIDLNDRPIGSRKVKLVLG

RPP25 (human) = biological target: T3, RPP25 (human) (UniProt Q9BUL9)
T3 sequence: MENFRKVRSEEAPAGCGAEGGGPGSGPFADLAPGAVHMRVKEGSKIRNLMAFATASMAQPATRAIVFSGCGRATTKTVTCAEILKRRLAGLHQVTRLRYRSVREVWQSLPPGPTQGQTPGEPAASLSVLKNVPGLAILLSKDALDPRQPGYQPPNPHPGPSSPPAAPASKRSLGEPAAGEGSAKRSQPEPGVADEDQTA

SLC30A6 (human) = SLC30A6 (human) (UniProt Q6NXT4)
SRA1 (human) = biological target: T4, SRA1 (human) (UniProt Q9HD15)
T4 sequence: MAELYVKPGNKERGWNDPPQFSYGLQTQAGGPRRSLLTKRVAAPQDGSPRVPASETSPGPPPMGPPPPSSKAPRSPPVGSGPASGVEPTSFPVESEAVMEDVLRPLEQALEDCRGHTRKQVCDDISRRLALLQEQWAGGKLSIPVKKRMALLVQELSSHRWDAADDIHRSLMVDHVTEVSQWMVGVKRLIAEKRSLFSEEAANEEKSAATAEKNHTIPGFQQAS

ZNF207 (human) = ZNF207 (human) (UniProt O43670)

Measured: binding

linear ubiquitin chain assembly complex (LUBAC), purified as HIS-tagged HOIP with the subunit HOIL-1, biotin-labelled (from UniProt Q96EP0 1-1072; Q9BYM8 1-510)
binds: all assays above
